Data from the supplement of paper PMC8426693.
The other results are listed elsewhere or left out.

What was measured:
Test in all cases: NMR binding call after quantification (hit when 2 of 3 NMR criteria are met) (binary (1 = binding, 0 = not binding)); higher = binding
Conditions in all cases: RNA concentration 10 µM; fragment concentration 200 µM; 293 K
SARS-CoV-2 5_SL7 RNA = tested on: SARS-CoV-2 5_SL7 RNA
SARS-CoV-2 5_SL8 RNA = tested on: SARS-CoV-2 5_SL8 RNA
[1] = tested on: SARS-CoV-2 attenuator hairpin (att HP) RNA
[2] = tested on: SARS-CoV-2 frameshift pseudoknot (PK) RNA

Measured: NMR binding call

CCNCc1cccc2[nH]ccc12
0: all assays above

COc1ccc(NC(=O)CN)cc1
0: all assays above

CC(=O)Nc1ccccc1CC(=O)O
0: all assays above

Cc1csc(NCC2CCCO2)n1 (stereo not drawn)
0: all assays above

Cl.O=C(CC(F)(F)F)N1CCNCC1
0: all assays above

CN(C)S(=O)(=O)c1cn[nH]c1
0: all assays above

O=C(Nc1ccc(F)cc1F)Nn1cnnc1
0: all assays above

CCC(=O)NC1CCNC1 (stereo not drawn)
0: all assays above

O=C1CN(Cc2ccccc2)CC(=O)N1
0: all assays above

CNC(=O)CN1CCNCC1
0: all assays above

4 structures already listed, sorted by molar mass, ascending.
CCC(=O)NC1CCNC1 (stereo not drawn)
0: all assays above

CNC(=O)CN1CCNCC1
0: all assays above

CN(C)S(=O)(=O)c1cn[nH]c1
0: all assays above

O=C1CN(Cc2ccccc2)CC(=O)N1
0: all assays above

(next part)

O=C(Nc1nncs1)c1ccccc1F
0: all assays above

CCOc1c(F)cccc1C(=O)N(C)C
0: all assays above

COCC(=O)Nc1c(C)cc(C)cc1C
0: all assays above

COc1cccc(C(N)CC(=O)O)c1 (stereo not drawn)
0: all assays above

CC(=O)N1CCCC(O)(C(=O)O)C1 (stereo not drawn)
0: all assays above

NC(=O)C(O)C1CCOCC1 (stereo not drawn)
0: all assays above

O=C(COc1ccccc1)N1CCCC1
0: all assays above

CC(=O)c1ccc(OCC(=O)O)cc1
0: all assays above

CN(CCO)S(=O)(=O)c1ccc(N)cc1
0: all assays above

CCOC(=O)Nc1sccc1C(N)=O
0: all assays above

O=C(Nc1ccccn1)c1cnccn1
0: all assays above

CC1CN(C)CCC1Nc1cnn(C)c1 (stereo not drawn)
0: all assays above
